Source: patent US7838645B2, “Function of autophagy genes in cell death” (University of Maryland College Park, priority 2004, dated 2010)
At least one compound was matched to its structure with a doubt left.

Test system: L929 cells
Test: Cell death analysis (propidium iodide staining, flow cytometry) in L929 cells
Assay type: cell-based, mouse
Details: WM 0.1 ug/ml or 3-MA 10 mM for 1 hour, then 20 uM zVAD for 36 hours, FIG. 1E
Protocol: Cell viability was determined after treatments by staining with propidium iodide (2 μg/mL) and flow cytometric analysis on a FACScan. Percent cell death was quantitated as previously described (26).
In mouse L929 fibroblastic cells, tumor necrosis factor (TNF), oxidants, ceramide, and radiation can induce caspase-independent death (11). […] L929 cells were treated with 1 ul of dimethyl sulfoxide (DMSO) FIG. 1A (a and c) or 20 uM zVAD (b and d) for 24 hours and examined by phase contrast microscopy (a and b); or 4′,6′-diamidino-2-phenylindole-staining and fluorescent microscopy (c and d). Magnification: 200×. […] The percentage of vaculated cells is the fraction of cells that have 10 or more autophagic vacuoles by TEM. Statistical analysis is shown in FIG. 4 and morphometric analysis of zVAD-induced autophagy in L929 cells is quantitated in Table 1 setforth below. […]
L929 cells were treated with 1 ul/ml DMSO, 20 uM zVAD, 20 uM zFA, 20 uM LEHD, 20 uM DEVD, or 20 uM zAAD for 40 hours, and % cell loss was quantified by flow cytometry. […] Because zVAD is a potent inhibitor of caspase-8, it likely exerted its death effect through inhibition of caspase-8.

## COC[C@H]1OC(=O)c2coc3c2[C@@]1(C)C1=C(C3=O)[C@@H]2CCC(=O)[C@@]2(C)C[C@H]1OC(C)=O [Wortmannin]
  Effect on zVAD-induced cell loss: reduction in cell loss
